Some peptides are written in HELM: one residue between dots, names in brackets for other building blocks, links after the first $.
Assay: peptide made by a vendor
Conditions: whole synthesis

| Substance | purity (crude or final not stated) |
| --- | --- |
| PEPTIDE1{I.S.Q.T.P.G.I.N.L.D.L.G.S.G.V.K.V.K.I.I.P.K.E.E.H}$$$$V2.0 | 99% or more |
| PEPTIDE1{N.Q.Q.L.K.V.G.I.L.H.L.G.S.R.Q.K.K.I.R.I.Q.L.R.S.Q}$$$$V2.0 | 99% or more |
